Test results: article PMC11205155

Legend:
Assay in all cases: two-hybrid; AD fusions (pGADT7) in S. cerevisiae Y187 mated with BD fusions (pGBKT7) in Y2HGold; diploids spotted at 5 x 10^2, 5 x 10^3 and 5 x 10^4 cells on double-dropout (SDM/-Leu/-Trp/X-α-Gal/AbA) and quadruple-dropout (SDM/-Leu/-Trp/-Ade/-His/X-α-Gal/AbA) plates, 3 days at 30 °C
[1] = target: T1, Phr2 of Beauveria bassiana (Beauveria bassiana) (UniProt J4WK53)
T1 sequence: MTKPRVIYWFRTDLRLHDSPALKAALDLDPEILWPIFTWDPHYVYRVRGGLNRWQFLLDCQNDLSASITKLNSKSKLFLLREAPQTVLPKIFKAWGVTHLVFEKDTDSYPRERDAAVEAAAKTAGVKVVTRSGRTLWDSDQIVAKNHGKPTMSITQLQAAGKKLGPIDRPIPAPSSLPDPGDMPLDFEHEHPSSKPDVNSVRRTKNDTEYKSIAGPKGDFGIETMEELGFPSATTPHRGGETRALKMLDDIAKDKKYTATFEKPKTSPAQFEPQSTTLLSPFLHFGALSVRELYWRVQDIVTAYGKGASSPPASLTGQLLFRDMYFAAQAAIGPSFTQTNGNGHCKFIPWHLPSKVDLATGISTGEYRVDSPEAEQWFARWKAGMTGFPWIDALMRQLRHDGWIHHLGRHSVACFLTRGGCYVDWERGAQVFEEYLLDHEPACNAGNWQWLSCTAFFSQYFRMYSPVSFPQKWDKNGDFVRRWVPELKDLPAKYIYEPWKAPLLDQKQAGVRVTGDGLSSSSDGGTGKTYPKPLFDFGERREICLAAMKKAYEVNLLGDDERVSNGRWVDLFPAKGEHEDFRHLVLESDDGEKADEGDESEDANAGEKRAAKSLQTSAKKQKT

[2] = target: T2, Rad1 of Beauveria bassiana (Beauveria bassiana) (UniProt J4VYF0)
T2 sequence: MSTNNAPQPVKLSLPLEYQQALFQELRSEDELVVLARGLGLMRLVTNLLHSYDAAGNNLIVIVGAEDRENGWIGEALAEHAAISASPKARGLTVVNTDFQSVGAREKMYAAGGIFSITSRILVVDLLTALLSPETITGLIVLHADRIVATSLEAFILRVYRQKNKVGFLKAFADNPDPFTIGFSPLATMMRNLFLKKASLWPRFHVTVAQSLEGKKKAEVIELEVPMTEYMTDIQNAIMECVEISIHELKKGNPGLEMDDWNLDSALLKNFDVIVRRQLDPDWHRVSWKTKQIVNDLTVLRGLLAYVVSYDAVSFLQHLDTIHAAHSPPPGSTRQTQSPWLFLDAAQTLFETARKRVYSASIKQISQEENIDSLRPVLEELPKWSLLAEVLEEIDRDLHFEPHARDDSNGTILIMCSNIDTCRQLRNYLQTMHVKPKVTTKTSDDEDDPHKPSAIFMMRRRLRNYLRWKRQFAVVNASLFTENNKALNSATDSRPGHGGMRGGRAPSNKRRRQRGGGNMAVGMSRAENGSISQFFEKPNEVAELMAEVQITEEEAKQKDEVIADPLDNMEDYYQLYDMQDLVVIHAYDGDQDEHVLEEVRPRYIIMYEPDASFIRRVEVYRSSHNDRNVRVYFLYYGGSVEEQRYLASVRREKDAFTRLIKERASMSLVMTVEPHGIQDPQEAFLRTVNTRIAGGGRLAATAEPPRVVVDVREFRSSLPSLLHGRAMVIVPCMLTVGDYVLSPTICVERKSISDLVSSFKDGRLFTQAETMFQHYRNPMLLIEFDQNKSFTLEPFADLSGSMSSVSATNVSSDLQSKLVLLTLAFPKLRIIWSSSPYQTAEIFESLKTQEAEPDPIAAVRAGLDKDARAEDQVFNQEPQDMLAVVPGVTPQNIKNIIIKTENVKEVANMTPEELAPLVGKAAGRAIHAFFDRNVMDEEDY

[3] = target: T3, WC1 of Beauveria bassiana (Beauveria bassiana) (UniProt J5J1K4)
T3 sequence: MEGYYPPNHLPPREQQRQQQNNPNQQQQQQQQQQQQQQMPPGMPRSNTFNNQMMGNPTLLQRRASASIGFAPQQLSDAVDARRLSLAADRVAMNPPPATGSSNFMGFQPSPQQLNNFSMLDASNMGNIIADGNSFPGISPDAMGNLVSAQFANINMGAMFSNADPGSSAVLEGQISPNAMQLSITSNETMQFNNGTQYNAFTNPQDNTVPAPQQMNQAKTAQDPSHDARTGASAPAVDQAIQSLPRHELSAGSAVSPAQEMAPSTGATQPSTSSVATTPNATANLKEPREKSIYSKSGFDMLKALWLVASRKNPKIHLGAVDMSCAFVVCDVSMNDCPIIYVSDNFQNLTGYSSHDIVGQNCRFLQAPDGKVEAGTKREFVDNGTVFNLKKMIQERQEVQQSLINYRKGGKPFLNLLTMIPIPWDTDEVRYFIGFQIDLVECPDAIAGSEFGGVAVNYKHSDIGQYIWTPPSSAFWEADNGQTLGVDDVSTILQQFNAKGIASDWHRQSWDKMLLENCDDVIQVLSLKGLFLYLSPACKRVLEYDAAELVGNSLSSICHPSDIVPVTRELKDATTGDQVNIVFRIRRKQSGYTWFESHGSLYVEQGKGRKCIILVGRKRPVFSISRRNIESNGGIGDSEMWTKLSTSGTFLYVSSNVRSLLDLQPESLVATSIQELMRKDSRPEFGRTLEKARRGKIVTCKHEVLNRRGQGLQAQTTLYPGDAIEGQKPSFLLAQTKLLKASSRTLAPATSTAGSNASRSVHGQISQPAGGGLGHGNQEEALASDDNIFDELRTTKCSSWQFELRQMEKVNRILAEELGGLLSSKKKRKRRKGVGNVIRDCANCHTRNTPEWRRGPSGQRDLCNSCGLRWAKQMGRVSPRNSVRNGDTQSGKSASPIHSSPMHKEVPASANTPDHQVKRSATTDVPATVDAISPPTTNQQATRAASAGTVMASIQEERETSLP

binding [1] | binding [2] | binding [3] | Substance
no binding | no binding | no binding | Rad16A of Beauveria bassiana
no binding | no binding | no binding | Rad16B of Beauveria bassiana
no binding | no binding | no binding | Rad5 ortholog of Beauveria bassiana

These are yes or no findings as the source states them, for the method shown.
